From article PMC11375786 (Biochemistry, 2024)
Square brackets hold non-standard residues; d marks the D form. * marks the point of attachment. Pbf = Cc1c(C)c(S(=O)(=O)*)c(C)c2c1OC(C)(C)C2; Cha = N[C@@H](CC1CCCCC1)C(=O)O; Boc = CC(C)(C)OC(=O)*; OBn = c1ccc(CO*)cc1

Assay: general procedure: Fmoc solid-phase peptide synthesis; Fmoc-Gly-2-Trt-Resin; DIC/HOBt (SPPS); PyBOP/DIEA or HBTU/HOBt/DIEA (coupling with 9)
Conditions: whole synthesis, TFA salt

With H-K(Boc)K(Boc)K(Boc)[Cha]E(OBn)G-OH the isolated mass (scale 0.12 mmol) was 127 mg and the isolated yield (scale 0.12 mmol) was 96%.
Work on Boc-K(Boc)[Cha]K(Boc)[Cha]K(Boc)G-OH yielded an isolated mass (scale 0.14 mmol) of 164 mg.
In the case of Boc-K(Boc)K(Boc)K(Boc)[Cha]G-OH, the isolated mass (scale 0.06 mmol) is reported as 61 mg.
Boc-R(Boc)[Cha]R(Pbf)[Cha]R(Pbf)G-OH showed an isolated mass (scale 0.17 mmol) of 212 mg and an isolated yield (scale 0.17 mmol) of 81%.
